Laboratory results from patent publication US4238500A, “Cyclic double hemiacetals of enediol compounds and compositions and methods for preparing and using same” (National Foundation for Cancer Research, priority 1979, dated 1980).

Test system: guinea pig ileum
Experiment: Effects on pain receptors: twitch height of coaxially stimulated guinea pig ileum
Details: Cavia porcellus, read-out: ED50 (50% reduction in twitch height)

**Q.** For `CN1CC[C@]23c4c5ccc(O)c4O[C@H]2[C@@H](O)C=C[C@H]3[C@H]1C5` [Morphine, morphine], which IC50 is on record?
**A.** 8.5 mM
